Test results as given in patent EP4616867A1, “COMBINATION OF ENDOTHELIN RECEPTOR ANTAGONIST AND GLUCOCORTICOID FOR TREATING IGA NEPHROPATHY” (Sanreno Therapeutics (Shanghai) Limited, priority 2022, dated 2024).
At least one compound was matched to its structure with a doubt left.

System: IgA nephropathy model mice
Experiment: Efficacy of atrasentan, methylprednisolone and combinations in IgA nephropathy model mice (CFA-stimulated humanized IGHA1 mice); blood hIgA1, IgG, IgM
Assay type: in vivo
Conditions: IgAN mice, after 30 days dosing, no significant statistical difference between groups, A+MP vs MP alone
Excerpt: The present invention will be further described below through examples, but the examples are not meant to limit the scope of the present invention in any way. For the measurement methods of various parameters in the examples, reference should be made to Wan F, Wang H, Wang M, Lü J, Zhao M, Zhang H. Sustained release of Lactobacillus casei cell wall extract can induce a continuous and stable IgA deposition model. […] Chimeric Fusion between Clostridium Ramosum IgA Protease and IgG Fc Provides Long-Lasting Clearance of IgA Deposits in Mouse Models of IgA Nephropathy. […] The above-mentioned documents are incorporated into this application in their entirety. […] Complete Freunds adjuvant (CFA) and phosphate buffer solution (PBS) were mixed thoroughly and emulsified at a ratio of 1:1 to obtain a CFA injection that was intraperitoneally injected into 8-week-old humanized IGHA1 mice constructed in step 1. Four times the mouse body weight (4w μl) was injected every 2 weeks, administering a total of 6 injections over a time period of about 2.5 months. • 2. In this experiment, the 8-week-old humanized IgA1 mice underwent an induction period of 2 to 5 months after the final injection of CFA. Table 1 […] Each group received intraperitoneal injections of CFA injection to create a model. Upon model completion, atrasentan, methylprednisolone and/or dapagliflozin were administered as outlined below. […] When co-administered, the required medicines were mixed together in the appropriate proportion (the dose of each medicine was calculated according to mouse body weight) before administration by gavage. […] Prior to dosing, once every 2 weeks during the dosing period, and on day 30 of dosing, urine creatinine, urine protein level, and albumin to creatinine ratio (ACR) were measured, and the mice checked for the presence of haematuria. Prior to dosing and on day 30 of dosing, renal tissue pathology was scored according to the Oxford classification system, IgA and C3 deposition in renal tissue was measured by immunofluorescence assay, and mice in each group were examined for cardiac pathology.

C[C@H]1C[C@@H]2[C@H]([C@@H](O)C[C@@]3(C)[C@H]2CC[C@]3(O)C(=O)CO)[C@@]2(C)C=CC(=O)C=C12 [Methylprednisolone (MP), methylprednisolone]
IgM changes (in words): mild downward trend in IgM
IgG changes (in words) (MP vs treatment control): trend for declining IgG after dosing
hIgA1 changes (in words) (MP vs treatment control): trend for declining hIgA1
